Assay results as given in PMC10163288.
This is one part of the list.

B1: il10ra_site1_normal_mot_HHH_b1_01011_000000096_0001_1_19_H_._HHH_b2_00624_0001_0000200017_0000001_0 (protein)
chain: SSSSSEEEEYLRLSLRFARFLLEEGDPEAARRVLHAAEDIARKLGNEELLEEIEELLEKAGSSSS
B2: il10ra_site1_normal_mot_HHH_b2_00984_000000042_0001_1_20_H_._HHH_b1_02776_0001_0000400039_0000001_0 (protein)
chain: SSSSDLEEEIEKLLEELEELIKEGDHERILELALEILRLIYEAKNAELLQRLWELIKRFASSSSS
B3: il10ra_site1_sap_18_mot_HHH_b2_02927_000000097_0001_42_56_H_._HHH_b1_04520_af2_0001_0000600010_0000002_0_0001_af2pred_0001 (protein)
chain: SSSSEAEKIALEALVKAERLLQRGNPEEAEKVLEEAEEELRELNDPRAVLIIELALRLIRESSSS
B4: il10ra_site1_normal_mot_HHH_b1_01879_000000050_0001_1_18_H_._HHH_b1_00882_0001_0000100001_0000001_0_af2pred_0001 (protein)
chain: SSSSDREKLLQLIARAIALAQRLNDEETAKRLFELLIRFYRHGDPRYAEEAEELREELEGSSSSS
B5: il10ra_site1_normal_mot_HHH_b2_00984_000000042_0001_1_20_H_._96901828190b971c916e7b6b8058f7b9_0001_1_0001_0000100002_0000001_0 (protein)
chain: PEQEVARRLLQLAFREGDPKLLQALWKLIKRAFEGDPEAEELLEEVAELLKKDEEEAKRLLKELG
B6: il10ra_site1_normal_mot_HHH_b2_01999_000000006_0001_1_18_H_._HHH_b1_07352_af2_0001_0000100004_0000001_0 (protein)
chain: SSSSTEVQEIVAEAIRLAIRLSDEEIFQELYELFRKYIEEGDERYQEELEELLEELRERLSSSSS
B7: il10ra_site1_sap_10_mot_6d7a5e300d552f8fe4195b5ca7ab279b_0001_000000114_0001_17_31_H_._06d841987633609111226104c7934927_0001_1_af2_0001_0000400003_0000002_0_000 … (protein)
chain: SSSSSDEEELVEAAFRIAEQALEYGDEERFRALLIALELIAEEANDPEARRLVEELEELGSSSSS
B8: il10ra_site1_normal_mot_ems_3hM_3349_af2_000000045_0001_25_42_H_._26de121311cec1c6b0b9f4dad300ffe3_0001_1_0001_0000100004_0000001_0 (protein)
chain: SEEERIEEILREAGVPPELVRLVVLAFELQLRQGSPPELILRALKLQARARGDPRLEEALELIEK
B9: il10ra_site1_sap_12_mot_HHH_b2_02693_af2_000000213_0001_19_35_H_._HHH_b2_04018_af2_0001_0000100002_0000002_0_0001 (protein)
chain: SSSSSEEEERVLELLREVFRLALRGNPEEARKVLEEAKELAEEIGDERALKMIEDLERSISSSSS
B10: il10ra_site1_sap_7_mot_4271555111f650dfcc09ceace45bed71_0001_1_000000133_0001_37_51_H_._923fb7134a056606f9ad410cad792901_0001_af2_0002_0000100001_0000001_0_0001 (protein)
chain: SSSSEVDEVYRLLEEILELLAQGDTDRVRELLEEIEELIEKLGNWSMRFSLKVLERELELLESSS
B11: il10ra_site1_normal_mot_HHH_b2_07579_000000077_0001_1_19_H_._HHH_b2_08153_0001_0000100009_0000002_0_af2pred_0001 (protein)
chain: SSSSTELAEEVFKILRRVAELRAQGNPEEAEELVQEALEIAEKAGNLILRISAETLLRQISSSSS
B12: il10ra_site1_sap_17_mot_HHH_b2_04013_af2_000000040_0001_22_39_H_._HHH_b1_00889_0001_0000200037_0000001_0_0001 (protein)
chain: SSSSSDAAREIYELSRRALELMAEGDPEQARELLEEALELAEENNNQVFAHAIRLLLEELSSSSS
B13: il10ra_site1_sap_24_mot_HHH_b1_02492_000000051_0001_1_21_H_._HHH_b2_03638_0001_0001100097_0000001_0_0001 (protein)
chain: SSSSDEAVQEALRLVLEAFRLLLRGDEEEARKLLEEALRLAEEANDPRARMAIEDLLKILNSSSS
B14: il10ra_site1_normal_mot_HHH_b1_01082_af2_000000031_0001_3_19_H_._HHH_b1_06064_0001_0000200007_0000001_0 (protein)
chain: SSSSSYEEVKKLIERIVELLRRGDHEEAEKLIRELEELAEELNNPSLRFVVRLLEEVLERLSSSS
B15: il10ra_site1_normal_mot_HHH_b2_04131_000000071_0001_1_16_H_._HHH_b2_02423_af2_0001_0000200002_0000002_0 (protein)
chain: SSSSSSDEELQRLLHELLRLYLKGDPRVEEVAEELRELAEELNNEVARFIVEAVERRLSSSSSSS
B16: il10ra_site1_sap_19_mot_HHH_b1_08133_000000195_0001_1_19_H_._HHH_b2_01218_0001_0000400019_0000002_0_0001 (protein)
chain: SSSSDEEEEESEELLERLEELLRRGDQERFIKLAAEIVRFAYEVNDEELLRAVWRLVREFASSSS
B17: il10ra_site1_normal_mot_HHH_b2_02337_000000026_0001_38_52_H_._HHH_b2_08324_0001_0000500027_0000001_1 (protein)
chain: SSSSSDEEEEEVEELIEEAKRIPDPRESSRVLQRAVRIAIRANNEELLQEIWRLVQKLASSSSSS
B18: il10ra_site1_sap_23_mot_HHH_b1_06816_000000239_0001_1_19_H_._HHH_b1_00588_0001_0000100026_0000001_0_0001 (protein)
chain: SSSTEEFERVYRLLRKAVELDHEGDPEEAQRVLEEARELAEELGDMLLKEQIKFLEREIERSSSS

biological target: il10ra, Q13651; assay: yeast display titration

Row | Binder | apparent Kd
1 | B1 | inactive: no binding seen
2 | B2 | inactive: no binding seen
3 | B3 | inactive: no binding seen
4 | B4 | inactive: no binding seen
5 | B5 | inactive: no binding seen
6 | B6 | inactive: no binding seen
7 | B7 | inactive: no binding seen
8 | B8 | inactive: no binding seen
9 | B9 | inactive: no binding seen
10 | B10 | inactive: no binding seen
11 | B11 | inactive: no binding seen
12 | B12 | inactive: no binding seen
13 | B13 | inactive: no binding seen
14 | B14 | inactive: no binding seen
15 | B15 | inactive: no binding seen
16 | B16 | inactive: no binding seen
17 | B17 | inactive: no binding seen
18 | B18 | inactive: no binding seen

Some of the entries so far, with tabs:
Row	Binder	apparent Kd
9	B9	inactive: no binding seen
14	B14	inactive: no binding seen
16	B16	inactive: no binding seen
